Drawing on paper PMC10454406, this text covers binding for nine substances.

By UniProt entry, the sequences of proteins in these tests, tags left out. Residues count along the entry.
UniProt P0DTC4: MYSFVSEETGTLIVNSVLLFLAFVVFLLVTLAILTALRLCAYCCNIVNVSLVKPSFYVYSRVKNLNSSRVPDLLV
UniProt O95793: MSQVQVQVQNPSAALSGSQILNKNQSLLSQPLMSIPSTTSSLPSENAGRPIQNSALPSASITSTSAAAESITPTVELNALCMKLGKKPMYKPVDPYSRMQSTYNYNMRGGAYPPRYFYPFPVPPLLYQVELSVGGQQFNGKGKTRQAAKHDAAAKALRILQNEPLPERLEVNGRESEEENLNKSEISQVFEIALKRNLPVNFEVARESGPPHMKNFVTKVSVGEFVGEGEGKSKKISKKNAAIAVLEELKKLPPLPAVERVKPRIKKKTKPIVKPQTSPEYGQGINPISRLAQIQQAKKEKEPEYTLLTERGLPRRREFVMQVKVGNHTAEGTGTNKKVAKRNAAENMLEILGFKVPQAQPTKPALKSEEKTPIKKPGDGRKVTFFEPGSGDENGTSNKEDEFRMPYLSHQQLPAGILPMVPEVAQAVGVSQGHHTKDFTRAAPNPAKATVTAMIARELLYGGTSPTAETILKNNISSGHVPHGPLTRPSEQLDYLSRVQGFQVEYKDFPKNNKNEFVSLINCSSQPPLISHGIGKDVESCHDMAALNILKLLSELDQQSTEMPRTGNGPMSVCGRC
UniProt P20701, residues 26-1170: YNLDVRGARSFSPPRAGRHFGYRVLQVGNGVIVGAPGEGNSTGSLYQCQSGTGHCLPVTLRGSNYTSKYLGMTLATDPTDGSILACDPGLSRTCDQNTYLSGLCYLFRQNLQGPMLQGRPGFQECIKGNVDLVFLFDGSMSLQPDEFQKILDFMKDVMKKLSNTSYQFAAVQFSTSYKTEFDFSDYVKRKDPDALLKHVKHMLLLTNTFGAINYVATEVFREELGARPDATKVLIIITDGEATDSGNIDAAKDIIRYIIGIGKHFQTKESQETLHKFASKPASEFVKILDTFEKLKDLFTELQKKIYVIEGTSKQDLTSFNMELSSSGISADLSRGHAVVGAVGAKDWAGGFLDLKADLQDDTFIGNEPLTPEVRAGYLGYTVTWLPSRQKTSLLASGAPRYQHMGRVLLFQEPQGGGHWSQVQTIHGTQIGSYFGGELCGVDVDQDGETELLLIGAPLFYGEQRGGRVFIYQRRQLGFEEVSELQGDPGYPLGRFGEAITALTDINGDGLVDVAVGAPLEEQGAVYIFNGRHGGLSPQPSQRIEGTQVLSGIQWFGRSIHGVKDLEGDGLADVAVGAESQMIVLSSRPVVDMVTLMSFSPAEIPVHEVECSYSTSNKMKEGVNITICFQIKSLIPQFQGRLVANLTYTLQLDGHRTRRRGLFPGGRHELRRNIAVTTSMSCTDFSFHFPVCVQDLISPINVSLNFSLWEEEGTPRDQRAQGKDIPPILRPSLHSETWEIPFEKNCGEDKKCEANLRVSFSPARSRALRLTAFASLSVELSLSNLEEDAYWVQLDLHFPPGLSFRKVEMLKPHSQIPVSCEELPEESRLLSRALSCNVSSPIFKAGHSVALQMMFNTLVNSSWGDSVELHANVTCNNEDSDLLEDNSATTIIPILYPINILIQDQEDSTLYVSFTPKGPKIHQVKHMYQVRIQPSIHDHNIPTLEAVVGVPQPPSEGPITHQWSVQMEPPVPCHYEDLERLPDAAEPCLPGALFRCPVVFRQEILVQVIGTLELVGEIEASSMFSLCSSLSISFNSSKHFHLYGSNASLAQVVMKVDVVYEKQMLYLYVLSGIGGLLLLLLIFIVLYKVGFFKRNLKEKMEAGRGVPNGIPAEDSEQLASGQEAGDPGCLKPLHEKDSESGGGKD
UniProt Q14005, residues 702-1332: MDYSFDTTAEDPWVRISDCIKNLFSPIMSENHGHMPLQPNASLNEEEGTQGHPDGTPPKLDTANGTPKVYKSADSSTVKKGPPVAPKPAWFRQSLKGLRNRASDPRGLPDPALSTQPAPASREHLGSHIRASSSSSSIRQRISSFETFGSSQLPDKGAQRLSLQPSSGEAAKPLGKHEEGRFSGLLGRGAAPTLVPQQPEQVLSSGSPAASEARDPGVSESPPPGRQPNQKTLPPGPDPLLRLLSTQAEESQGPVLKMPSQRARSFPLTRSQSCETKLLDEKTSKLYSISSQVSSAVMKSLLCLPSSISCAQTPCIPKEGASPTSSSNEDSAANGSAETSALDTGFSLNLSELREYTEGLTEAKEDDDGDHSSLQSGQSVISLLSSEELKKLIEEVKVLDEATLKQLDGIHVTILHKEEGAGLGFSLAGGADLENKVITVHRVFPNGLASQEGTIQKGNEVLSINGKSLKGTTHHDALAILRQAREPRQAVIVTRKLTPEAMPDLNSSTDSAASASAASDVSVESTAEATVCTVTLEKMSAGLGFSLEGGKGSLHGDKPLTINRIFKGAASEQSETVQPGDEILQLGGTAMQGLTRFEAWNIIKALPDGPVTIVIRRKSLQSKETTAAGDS
UniProt Q14160: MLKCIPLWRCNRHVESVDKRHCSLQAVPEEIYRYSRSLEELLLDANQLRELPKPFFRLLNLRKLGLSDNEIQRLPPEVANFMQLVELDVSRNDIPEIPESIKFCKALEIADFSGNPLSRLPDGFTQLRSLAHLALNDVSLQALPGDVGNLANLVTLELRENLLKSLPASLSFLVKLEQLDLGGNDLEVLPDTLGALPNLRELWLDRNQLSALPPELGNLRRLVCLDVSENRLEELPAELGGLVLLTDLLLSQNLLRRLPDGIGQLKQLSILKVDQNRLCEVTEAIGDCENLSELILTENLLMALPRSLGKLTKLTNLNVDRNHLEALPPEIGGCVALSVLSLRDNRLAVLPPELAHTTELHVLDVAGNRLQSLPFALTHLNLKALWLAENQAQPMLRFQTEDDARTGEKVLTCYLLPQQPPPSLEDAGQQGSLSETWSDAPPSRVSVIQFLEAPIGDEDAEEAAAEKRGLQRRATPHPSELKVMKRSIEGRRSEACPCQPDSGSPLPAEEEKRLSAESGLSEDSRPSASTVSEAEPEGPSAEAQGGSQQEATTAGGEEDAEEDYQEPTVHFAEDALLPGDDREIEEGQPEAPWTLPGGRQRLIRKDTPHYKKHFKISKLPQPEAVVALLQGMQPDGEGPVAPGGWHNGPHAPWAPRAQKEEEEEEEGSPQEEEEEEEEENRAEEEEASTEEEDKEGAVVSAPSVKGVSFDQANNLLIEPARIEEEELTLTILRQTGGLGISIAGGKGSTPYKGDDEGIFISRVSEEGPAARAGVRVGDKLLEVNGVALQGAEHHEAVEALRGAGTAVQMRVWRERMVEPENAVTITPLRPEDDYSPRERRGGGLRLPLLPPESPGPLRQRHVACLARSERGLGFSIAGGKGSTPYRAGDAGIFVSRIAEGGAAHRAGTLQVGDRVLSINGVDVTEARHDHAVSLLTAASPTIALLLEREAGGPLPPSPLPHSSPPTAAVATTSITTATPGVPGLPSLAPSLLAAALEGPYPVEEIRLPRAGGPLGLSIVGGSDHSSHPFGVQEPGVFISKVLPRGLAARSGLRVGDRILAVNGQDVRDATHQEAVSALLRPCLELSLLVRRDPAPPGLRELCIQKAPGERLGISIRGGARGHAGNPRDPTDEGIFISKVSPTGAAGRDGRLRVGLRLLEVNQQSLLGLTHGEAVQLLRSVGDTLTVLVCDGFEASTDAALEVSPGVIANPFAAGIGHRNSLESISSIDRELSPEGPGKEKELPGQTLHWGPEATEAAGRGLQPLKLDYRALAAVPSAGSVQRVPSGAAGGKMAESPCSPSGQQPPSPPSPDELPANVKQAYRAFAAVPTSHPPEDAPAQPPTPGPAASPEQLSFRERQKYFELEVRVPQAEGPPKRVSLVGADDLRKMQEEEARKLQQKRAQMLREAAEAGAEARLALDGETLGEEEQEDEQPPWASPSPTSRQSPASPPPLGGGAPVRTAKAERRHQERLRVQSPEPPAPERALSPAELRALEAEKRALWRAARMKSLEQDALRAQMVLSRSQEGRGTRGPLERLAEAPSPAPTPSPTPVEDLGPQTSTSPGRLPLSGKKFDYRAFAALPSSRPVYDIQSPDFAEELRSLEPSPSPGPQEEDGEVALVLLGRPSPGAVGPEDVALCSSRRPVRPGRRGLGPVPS
UniProt O43166: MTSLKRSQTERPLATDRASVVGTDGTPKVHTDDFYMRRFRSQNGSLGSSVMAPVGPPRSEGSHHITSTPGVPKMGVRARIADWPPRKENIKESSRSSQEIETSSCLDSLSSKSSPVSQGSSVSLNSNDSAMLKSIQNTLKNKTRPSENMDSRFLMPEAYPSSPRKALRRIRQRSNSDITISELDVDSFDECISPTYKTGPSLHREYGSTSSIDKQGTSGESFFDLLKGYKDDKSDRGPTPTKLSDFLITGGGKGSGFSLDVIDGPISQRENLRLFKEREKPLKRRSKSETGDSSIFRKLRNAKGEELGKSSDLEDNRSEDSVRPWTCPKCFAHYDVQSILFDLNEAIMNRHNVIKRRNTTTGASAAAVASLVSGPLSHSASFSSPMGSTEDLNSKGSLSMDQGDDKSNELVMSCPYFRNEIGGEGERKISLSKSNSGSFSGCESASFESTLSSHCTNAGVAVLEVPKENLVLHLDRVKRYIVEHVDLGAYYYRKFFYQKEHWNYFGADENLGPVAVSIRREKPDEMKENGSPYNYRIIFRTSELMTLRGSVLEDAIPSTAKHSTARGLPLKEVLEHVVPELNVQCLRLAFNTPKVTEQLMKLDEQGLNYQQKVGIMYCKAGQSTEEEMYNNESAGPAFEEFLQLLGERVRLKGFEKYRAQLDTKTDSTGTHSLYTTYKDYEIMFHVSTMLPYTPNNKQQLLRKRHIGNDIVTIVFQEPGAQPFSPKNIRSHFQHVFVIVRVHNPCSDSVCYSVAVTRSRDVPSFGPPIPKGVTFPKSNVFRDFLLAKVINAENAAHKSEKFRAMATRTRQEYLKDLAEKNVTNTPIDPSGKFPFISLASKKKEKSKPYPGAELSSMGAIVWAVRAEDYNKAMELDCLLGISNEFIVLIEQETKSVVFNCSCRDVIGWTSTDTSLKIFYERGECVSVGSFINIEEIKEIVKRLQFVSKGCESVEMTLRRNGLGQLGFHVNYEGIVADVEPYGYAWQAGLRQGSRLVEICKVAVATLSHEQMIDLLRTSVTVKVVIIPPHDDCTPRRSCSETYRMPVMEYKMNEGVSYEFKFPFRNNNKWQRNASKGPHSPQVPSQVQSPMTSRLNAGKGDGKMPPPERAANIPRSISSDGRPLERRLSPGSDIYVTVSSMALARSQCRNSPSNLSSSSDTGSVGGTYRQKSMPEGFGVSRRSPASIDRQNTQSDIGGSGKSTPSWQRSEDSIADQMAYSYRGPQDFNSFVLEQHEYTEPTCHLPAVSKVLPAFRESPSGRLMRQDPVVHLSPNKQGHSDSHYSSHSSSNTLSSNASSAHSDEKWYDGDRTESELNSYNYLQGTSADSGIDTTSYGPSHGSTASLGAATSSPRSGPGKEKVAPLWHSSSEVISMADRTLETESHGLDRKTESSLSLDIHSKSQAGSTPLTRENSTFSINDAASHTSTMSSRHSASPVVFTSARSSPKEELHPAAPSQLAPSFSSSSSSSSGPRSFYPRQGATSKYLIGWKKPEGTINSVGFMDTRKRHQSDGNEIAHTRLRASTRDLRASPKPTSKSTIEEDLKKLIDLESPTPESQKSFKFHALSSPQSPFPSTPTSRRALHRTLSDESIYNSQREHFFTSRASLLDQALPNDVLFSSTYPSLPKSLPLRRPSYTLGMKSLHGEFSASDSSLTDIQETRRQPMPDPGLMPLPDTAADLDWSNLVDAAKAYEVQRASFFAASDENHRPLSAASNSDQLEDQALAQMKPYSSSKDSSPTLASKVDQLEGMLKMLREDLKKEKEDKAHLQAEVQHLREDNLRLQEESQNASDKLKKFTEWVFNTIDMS
UniProt O00560: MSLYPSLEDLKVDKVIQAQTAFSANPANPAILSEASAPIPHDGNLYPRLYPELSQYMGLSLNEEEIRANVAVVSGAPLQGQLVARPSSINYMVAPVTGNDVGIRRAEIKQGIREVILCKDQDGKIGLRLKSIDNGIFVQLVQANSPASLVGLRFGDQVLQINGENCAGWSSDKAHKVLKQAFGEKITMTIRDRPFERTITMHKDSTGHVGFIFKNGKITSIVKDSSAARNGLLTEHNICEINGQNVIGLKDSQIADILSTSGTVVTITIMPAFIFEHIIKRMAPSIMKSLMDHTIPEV

These are yes or no findings as the source states them, for the method shown. Binding seen in cells or lysates may run through a third protein. These calls come from enrichment with a bait or labelling near it, and not all partners need be listed.

For this test, the target named is GFP-SARS-CoV-2 E protein (wild-type E protein) (SARS-CoV-2) (UniProt P0DTC4). Put plainly: affinity purification with mass spectrometry.
As for CD44 (from UniProt P16070 21-742), the binding result is recorded as “binds”.
On to MOV10A (from UniProt Q9HCE1 1-1003), for which the binding entry was “binds”.
On to STAU1 (from UniProt O95793 1-577), for which the binding entry was “binds”.
With delphilin (from UniProt A4D2P6 1-1211), the binding entry is “binds”.
For “integrin alpha L (from UniProt P20701 26-1170)” the value was “binds”; for “pro-interleukin 16 (from UniProt Q14005-3 1-631)”, “binds”.
On to “scribble human homolog (from UniProt Q14160 1-1655)”, for which the binding result is on record as “binds”.
As to “signal-induced proliferation-associated 1-like protein 1 (from UniProt O43166 1-1804)”, the binding result was “binds”.
In the case of syntenin-1 (from UniProt O00560 1-298), the binding entry is listed as “binds”.
